These are yes or no findings as the source states them, for the method shown. Binding seen in cells or lysates may run through a third protein. Some entries that bind do so weakly or less than the wild type. Sequences can lack the tags named with a protein.

The chains behind the UniProt entries cited, without tags or fusion partners. Where a name states a change or a piece, a line headed by the entry shows the natural chain unless it says otherwise.
UniProt Q9UHC3: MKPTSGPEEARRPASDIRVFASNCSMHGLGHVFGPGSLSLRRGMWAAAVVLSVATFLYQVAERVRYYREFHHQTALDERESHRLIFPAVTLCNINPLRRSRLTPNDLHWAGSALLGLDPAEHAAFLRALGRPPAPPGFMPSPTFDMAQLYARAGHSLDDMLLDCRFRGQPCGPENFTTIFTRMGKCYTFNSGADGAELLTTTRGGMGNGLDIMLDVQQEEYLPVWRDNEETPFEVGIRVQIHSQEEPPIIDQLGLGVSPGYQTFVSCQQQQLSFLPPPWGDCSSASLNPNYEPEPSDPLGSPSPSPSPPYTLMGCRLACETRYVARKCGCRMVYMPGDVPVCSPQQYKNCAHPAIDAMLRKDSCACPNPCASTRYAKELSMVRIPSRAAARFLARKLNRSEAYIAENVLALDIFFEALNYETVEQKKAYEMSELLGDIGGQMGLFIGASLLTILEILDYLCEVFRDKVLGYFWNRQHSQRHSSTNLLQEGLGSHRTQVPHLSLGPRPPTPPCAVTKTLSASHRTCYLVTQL
UniProt Q16515: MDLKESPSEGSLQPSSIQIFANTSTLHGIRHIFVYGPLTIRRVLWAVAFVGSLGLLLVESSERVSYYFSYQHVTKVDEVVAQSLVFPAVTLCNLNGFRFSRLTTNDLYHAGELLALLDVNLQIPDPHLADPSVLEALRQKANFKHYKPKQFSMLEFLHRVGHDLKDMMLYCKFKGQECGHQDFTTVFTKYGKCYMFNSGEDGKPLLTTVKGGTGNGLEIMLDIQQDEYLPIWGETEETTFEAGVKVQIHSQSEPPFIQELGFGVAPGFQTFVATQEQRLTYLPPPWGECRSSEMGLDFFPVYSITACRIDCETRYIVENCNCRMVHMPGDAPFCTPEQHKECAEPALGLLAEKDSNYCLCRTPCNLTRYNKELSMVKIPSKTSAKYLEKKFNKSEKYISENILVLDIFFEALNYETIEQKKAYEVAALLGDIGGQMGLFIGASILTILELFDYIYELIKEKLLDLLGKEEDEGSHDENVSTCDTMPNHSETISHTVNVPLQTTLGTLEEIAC

We go through 2 substances from US20030219858A1.

For experiment [1], the target named is T1, ASIC3-N_His6 (human ASIC3 with N-terminal His6 tag) (human) (UniProt Q9UHC3).
T1 sequence: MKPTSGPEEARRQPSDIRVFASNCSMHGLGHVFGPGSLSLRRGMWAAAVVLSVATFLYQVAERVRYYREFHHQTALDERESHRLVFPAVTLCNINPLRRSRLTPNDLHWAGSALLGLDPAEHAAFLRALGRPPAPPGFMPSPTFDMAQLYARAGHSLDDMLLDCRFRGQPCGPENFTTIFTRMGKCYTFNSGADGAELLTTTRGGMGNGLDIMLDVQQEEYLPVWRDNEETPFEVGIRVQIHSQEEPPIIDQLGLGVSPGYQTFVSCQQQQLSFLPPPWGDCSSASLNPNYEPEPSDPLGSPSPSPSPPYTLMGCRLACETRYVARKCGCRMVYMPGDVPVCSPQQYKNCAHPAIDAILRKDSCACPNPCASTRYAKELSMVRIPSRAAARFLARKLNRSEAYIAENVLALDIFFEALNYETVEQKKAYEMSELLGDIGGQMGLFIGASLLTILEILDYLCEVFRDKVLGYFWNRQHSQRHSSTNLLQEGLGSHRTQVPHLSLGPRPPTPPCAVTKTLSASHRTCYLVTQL
In words: co-purification and Western blot, subunits coexpressed in Xenopus oocytes or HEK293 cells.

Experiment [2] concerns the target T1, ASIC3-N_His6 (human ASIC3 with N-terminal His6 tag) (human). The experiment in a line: co-purification on Ni-NTA resin from Triton X-100 lysates of co-expressing oocytes or HEK 293 cells; Western blot with anti-GFP or anti-His6.
The target of experiment [3] is T2, ASIC3-C_FLAG (human ASIC3 with C-terminal FLAG tag) (human) (UniProt Q9UHC3).
T2 sequence: T1 sequence
The experiment in a line: co-immunoprecipitation on antiFLAG M2 immunoaffinity resin from Triton X-100 lysates of co-expressing oocytes or HEK 293 cells; Western blot with anti-GFP or anti-His6.

For the substance “ASIC2A-N_GFP (human ASIC2A with N-terminal GFP tag) (from UniProt Q16515 1-512) (receptor)”, the binding entry in experiment [1] and in experiment [2] was “binds” in each case.

Consider “ASIC2A-N_His6 (human ASIC2A with N-terminal His6 tag) (from UniProt Q16515 1-512) (receptor)”, for which the binding entry in experiment [3] is listed as “binds”.
